Experimental data published in paper PMC3514159.
These are yes or no findings as the source states them, for the method shown. In cells and extracts the contact can be indirect. Some results given as binding are weak or reduced against the parent protein; the word gives no strength. For part of these data: Sequences can lack the tags named with a protein.

Chains of the proteins cited; added tags and fusions are not shown.
UniProt Q8WUM4: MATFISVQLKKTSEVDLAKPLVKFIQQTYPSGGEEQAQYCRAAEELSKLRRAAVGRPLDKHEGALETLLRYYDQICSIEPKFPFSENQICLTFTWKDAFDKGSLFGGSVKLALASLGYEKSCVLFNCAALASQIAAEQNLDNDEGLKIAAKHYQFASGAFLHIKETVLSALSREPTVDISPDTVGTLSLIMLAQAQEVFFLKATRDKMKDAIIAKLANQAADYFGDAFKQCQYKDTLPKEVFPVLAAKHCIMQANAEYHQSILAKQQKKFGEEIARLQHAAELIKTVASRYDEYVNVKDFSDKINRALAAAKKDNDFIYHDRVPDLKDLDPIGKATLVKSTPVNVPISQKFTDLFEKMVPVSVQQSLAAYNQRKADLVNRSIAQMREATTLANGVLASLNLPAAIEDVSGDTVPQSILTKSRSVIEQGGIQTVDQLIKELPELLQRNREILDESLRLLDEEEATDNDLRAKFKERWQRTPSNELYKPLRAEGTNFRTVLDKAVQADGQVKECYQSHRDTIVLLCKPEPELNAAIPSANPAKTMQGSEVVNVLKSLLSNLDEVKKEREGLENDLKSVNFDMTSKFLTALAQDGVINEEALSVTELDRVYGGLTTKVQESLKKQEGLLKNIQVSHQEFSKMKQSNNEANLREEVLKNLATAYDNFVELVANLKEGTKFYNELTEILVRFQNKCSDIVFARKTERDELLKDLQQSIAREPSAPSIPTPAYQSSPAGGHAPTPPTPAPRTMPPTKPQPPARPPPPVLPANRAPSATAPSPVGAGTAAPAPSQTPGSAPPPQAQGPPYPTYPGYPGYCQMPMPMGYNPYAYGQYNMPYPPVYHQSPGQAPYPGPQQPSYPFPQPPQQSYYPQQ
UniProt P48059: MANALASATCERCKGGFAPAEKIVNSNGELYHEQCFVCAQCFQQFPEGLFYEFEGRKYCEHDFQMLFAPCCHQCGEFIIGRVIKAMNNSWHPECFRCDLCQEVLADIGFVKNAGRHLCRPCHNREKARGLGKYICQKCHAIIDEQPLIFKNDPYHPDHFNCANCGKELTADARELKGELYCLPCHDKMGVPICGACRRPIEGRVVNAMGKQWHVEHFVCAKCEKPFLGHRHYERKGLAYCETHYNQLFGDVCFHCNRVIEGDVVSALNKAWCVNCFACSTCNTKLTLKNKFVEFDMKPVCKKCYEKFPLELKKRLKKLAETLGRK
UniProt P09022: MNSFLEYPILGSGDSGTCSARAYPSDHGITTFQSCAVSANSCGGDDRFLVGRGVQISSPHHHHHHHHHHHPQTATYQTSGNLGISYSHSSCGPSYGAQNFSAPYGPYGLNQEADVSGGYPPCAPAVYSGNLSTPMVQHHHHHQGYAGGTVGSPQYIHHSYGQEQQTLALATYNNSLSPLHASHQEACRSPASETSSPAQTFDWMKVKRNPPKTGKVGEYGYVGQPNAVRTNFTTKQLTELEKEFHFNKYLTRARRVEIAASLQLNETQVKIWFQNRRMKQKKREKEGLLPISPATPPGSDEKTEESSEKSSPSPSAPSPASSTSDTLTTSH

Tests used:
Experiment in all cases: pull-down; GST-hORF and FLAG-Hoxa1 co-expressed in COS7 or HEK293T; cleared lysate (Tris-HCl pH7.5 20mM, NaCl 120mM, EDTA 0.5mM, NP40 0.5%, glycerol 10%) overnight on glutathione-agarose beads, 3 washes; anti-FLAG western blot
[1] = biological target: T1, four and a half LIM domains 5 (human) (UniProt Q5TD97)
T1 sequence: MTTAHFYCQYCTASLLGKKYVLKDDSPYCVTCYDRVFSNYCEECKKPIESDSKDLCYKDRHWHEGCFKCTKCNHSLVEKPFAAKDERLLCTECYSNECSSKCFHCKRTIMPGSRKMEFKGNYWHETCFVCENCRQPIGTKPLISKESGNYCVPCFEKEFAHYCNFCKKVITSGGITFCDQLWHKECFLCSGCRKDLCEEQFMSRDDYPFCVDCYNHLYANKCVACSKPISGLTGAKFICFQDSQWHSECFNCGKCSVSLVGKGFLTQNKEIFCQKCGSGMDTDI

[2] = biological target: programmed cell death 6 interacting protein (human) (UniProt Q8WUM4)
[3] = biological target: T2, NEDD4 binding protein 2-like 2 (human) (UniProt Q92802)
T2 sequence: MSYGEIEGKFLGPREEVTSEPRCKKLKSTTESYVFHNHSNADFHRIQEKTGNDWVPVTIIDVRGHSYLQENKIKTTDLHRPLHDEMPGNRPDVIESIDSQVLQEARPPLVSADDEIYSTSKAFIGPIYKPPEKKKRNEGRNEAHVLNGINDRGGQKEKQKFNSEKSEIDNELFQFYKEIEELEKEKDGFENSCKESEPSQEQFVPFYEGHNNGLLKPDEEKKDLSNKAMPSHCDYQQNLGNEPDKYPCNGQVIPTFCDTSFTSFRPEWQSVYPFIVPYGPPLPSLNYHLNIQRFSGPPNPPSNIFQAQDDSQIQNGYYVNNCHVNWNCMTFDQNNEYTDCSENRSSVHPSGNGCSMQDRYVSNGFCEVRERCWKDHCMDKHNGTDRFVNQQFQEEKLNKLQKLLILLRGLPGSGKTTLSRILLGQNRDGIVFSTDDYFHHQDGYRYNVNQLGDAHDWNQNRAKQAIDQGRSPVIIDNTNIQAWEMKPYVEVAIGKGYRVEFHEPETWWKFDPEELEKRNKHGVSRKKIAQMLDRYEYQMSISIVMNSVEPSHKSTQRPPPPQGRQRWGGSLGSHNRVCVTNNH

[4] = biological target: LIM and senescent cell antigen-like domains 1 (human) (UniProt P48059)
[5] = biological target: T3, mannosyl (α-1,6-)-glycoprotein β-1,6-N-acetyl-glucosaminyltransferase, isozyme B (human) (UniProt Q3V5L5)
T3 sequence: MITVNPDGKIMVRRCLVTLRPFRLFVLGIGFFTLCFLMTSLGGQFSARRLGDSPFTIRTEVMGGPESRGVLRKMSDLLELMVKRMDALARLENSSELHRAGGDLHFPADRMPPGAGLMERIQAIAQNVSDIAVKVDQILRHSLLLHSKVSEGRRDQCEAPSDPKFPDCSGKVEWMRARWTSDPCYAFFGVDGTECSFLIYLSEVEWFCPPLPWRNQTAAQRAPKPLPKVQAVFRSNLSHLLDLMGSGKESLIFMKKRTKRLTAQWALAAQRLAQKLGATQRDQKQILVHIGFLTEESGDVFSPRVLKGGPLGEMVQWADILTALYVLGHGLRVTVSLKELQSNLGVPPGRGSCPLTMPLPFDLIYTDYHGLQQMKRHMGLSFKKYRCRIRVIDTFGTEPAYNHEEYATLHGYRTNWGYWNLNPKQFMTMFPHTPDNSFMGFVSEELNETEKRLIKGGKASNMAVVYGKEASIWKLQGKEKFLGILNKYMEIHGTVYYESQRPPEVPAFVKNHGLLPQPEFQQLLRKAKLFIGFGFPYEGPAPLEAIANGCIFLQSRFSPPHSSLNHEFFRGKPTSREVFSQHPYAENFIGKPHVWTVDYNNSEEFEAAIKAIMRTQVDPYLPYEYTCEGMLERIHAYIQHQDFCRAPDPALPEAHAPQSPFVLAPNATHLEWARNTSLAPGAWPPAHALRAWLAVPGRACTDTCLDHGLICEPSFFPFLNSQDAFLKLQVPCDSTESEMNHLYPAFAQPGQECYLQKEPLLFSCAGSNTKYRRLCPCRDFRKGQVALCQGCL

[6] = biological target: T4, keratin associated protein 5-9 (human) (UniProt P26371)
T4 sequence: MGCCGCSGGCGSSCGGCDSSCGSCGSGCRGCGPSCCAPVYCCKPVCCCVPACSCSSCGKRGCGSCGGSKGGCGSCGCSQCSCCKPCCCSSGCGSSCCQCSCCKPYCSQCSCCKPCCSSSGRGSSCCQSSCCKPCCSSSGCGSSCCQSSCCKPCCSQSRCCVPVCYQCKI

binding [3]: binds
binding [4]: binds
binding [5]: binds
binding [6]: binds
Substance: FLAG-Hoxa1 (from UniProt P09022 1-331)
binding [1]: binds
binding [2]: binds
